Source: US20230146455A1 (Yuyu Pharma, Inc., priority 2020, published 2023)

Test: general procedure: Fmoc solid-phase peptide synthesis
Conditions: whole synthesis

Substance | purity (crude or final not stated) [%]
O*GQLGLAGP | 98.7
O*GQLGLAGP(azetidine) | 97.9
O*GQLGLAGP(diethyl) | 97.2
O*GQLGLAGP(dimethyl) | 96.7
O*GQLGLAGP(isopropylethyl) | 98.2
O*GQLGLAGP(pyrroidine) | 97.2
O*GQLGLAGPK(NH-PEG1-NH-Boc) [YDE-093] | 99.1
O*GQLGLAGPK(NH-PEG1-NH-Cbz) [YDE-096] | 95.4

Test: peptide made by a vendor (Fmoc solid-phase peptide synthesis)
Conditions: whole synthesis

Substance | purity (crude or final not stated) [%]
O*GQDGLA | 97.4
O*GQLGLAGP(methylethyl) | 97.4
